A short description of this test: qHTS Assay for Lipid Storage Modulators in Drosophila S3 Cells.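 On cell number change: cells counted by Cell Tracker Red CMTPX staining in the red channel.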 The conditions noted are these: BODIPY lipid droplet fluorescence, 18-24 h; for cell number change: measured here: cell count max response, cells fed with added oleic acid. The essentials:
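Drosophila S3 cells got compounds at several concentrations plus oleic acid (400 uM solution). Laser-scanning cytometry with 488 nm excitation read lipid droplets at 500-530 nm and cells at 575-640 nm. Percent activity was relative to 20 uM Triacsin C.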

Where [1] appears, read: measured here: lipid fluorescence (Fed channel) AC50, cells fed with added oleic acid.
Setting [2] is: measured here: cell number channel AC50, cells fed with added oleic acid.

Structures are written as SMILES. This is one part of the list. Shown are side measurements of this screen, not its main read-out; they come without a call. The list favours compounds with an active or inconclusive main result. Words in brackets tell the shape of the fitted curve; partial curves, single points and poor fits give uncertain potencies.

`CCNS(=O)(=O)c1ccc(CCC(=O)O)cc1`: the cell number change is -22.4%. Further, under setting [1], the AC50 (usually the concentration at which the activity in the assay is half-maximal) is 0.82 µM [falling, full curve, poor fit].
In the case of `Cc1cc(NC(=O)CSCC(=O)Nc2ccccc2OC(F)F)no1`, the cell number change is 18.1%.
Same read-out and setting: next, `CCOc1ccc(S(=O)(=O)N2CCCC(C(=O)N3CCN(CC)CC3)C2)cc1Cl` (centres undefined): 2.61%.
`CCCC1=NN(c2ccc([N+](=O)[O-])cc2)C(=O)/C1=C\N(C)C`: the cell number change stood at 69.8%. Also, the AC50 under setting [2] was 29.1 µM [rising, single point]. Moreover, the AC50 under setting [1] was 5.8 µM [rising, partial curve].
Consider `NC(=O)CSc1nnc(-c2ccccn2)n1N`, for which the cell number change is -11.1%. Besides, the AC50 under setting [1] was 2.59 µM [falling, full curve, poor fit].
For `O=C(NCCO)c1ccc(-c2nnc(Nc3ccc(O)cc3)c3ccccc23)cc1`, the AC50 under setting [1] is 6.51 µM [rising, single point].
Regarding `CC(=O)c1cccc(NC(=O)c2ccc(Br)o2)c1`, the cell number change was -6.58%. Moreover, the AC50 under setting [1] was 0.0259 µM [falling, full curve, poor fit].
As for `CC(C)c1ccc(NCCC(=O)c2cccs2)cc1`, the cell number change stood at 15.8%. For the same compound, under setting [1], the AC50 was 4.61 µM [rising, full curve].
`Cc1nn(Cc2ccccc2Cl)c2sc(C(=O)Nc3ccccc3N3CCOCC3)cc12`: the cell number change worked out at 13.5%. In addition, the AC50 under setting [2] is 2.31 µM [rising, partial curve]. For the same compound, under setting [1], the AC50 is 0.058 µM [rising, full curve, poor fit].
For the compound `Cc1cccc(NC(=O)c2sc3nc(-c4ccccc4)cn3c2C)n1`, the AC50 is 0.651 µM [rising, full curve] under setting [2] and 0.651 µM [rising, full curve] under setting [1].
As for `CCOC(=O)C1(CC)NC(c2ccco2)C2C(=O)N(CC)C(=O)C21` (centres undefined), the AC50 under setting [2] is 6.51 µM [falling, single point].
Take `Cc1cccc(S(=O)(=O)c2c(N)n(/N=C/c3ccccc3)c3nc4ccccc4nc23)c1`: the cell number change is 151%. Moreover, under setting [2], the AC50 is 0.366 µM [rising, full curve]. For the same compound, under setting [1], the AC50 is 23.1 µM [rising, partial curve].
In the case of `CN(C(=O)c1ccc(NC(=O)Cc2cccc(NC(=O)C3CCN(C(=O)C4CCCC4)CC3)c2)cc1)C1CCCC1`, the cell number change was -11.6%. Moreover, under setting [2], the AC50 is 7.31 µM [falling, single point]. Besides, the AC50 under setting [1] was 1.64 µM [falling, single point].
As to `COc1cccc(NC(=O)N2CCCC2C(=O)Nc2ccc3c(c2)OCCO3)c1` (centres undefined), the AC50 under setting [2] is 6.51 µM [rising, single point].
In the case of `Cc1c(N2C(=O)CSC2c2ccccc2)c(=O)n(-c2ccccc2)n1C` (centres undefined), the cell number change amounted to 11.1%.
In the case of `CN(C)CC(C)(C)NS(=O)(=O)c1ccc(Cl)cc1`, the cell number change came to 5.04%. Also, the AC50 under setting [1] is 0.146 µM [falling, full curve].
As to `CS(=O)(=O)N(CC(=O)Nc1ccc2c(c1)OCO2)c1ccc2c(c1)OCO2`, the cell number change is -51.4%. Also, the AC50 under setting [2] was 20.6 µM [falling, single point].
With `Cc1ccc(NC(=O)c2cc(S(=O)(=O)N3CCCCC3)c[nH]2)cc1C`, the cell number change worked out at 1.8%. Further, under setting [1], the AC50 was 29.1 µM [falling, single point].
Turning to `CCN(c1ccc(NC(=O)CCNC(=O)c2ccco2)cc1)C(C)C`, the cell number change was -83.3%. Besides, under setting [2], the AC50 was 20.6 µM [falling, single point].
Consider `CCC(=O)Nc1cc(Cl)ccc1C(=O)O`, for which the cell number change is -1.19%. Moreover, the AC50 under setting [1] is 2.31 µM [falling, single point].
With `Cc1cc(C)n(C(=O)CNC(=O)c2ccc(Cl)cc2Cl)n1`, the cell number change stood at 45.2%. The AC50 under setting [2] was 18.4 µM [rising, single point].
`O=C(Nc1ccc2ccccc2n1)c1ccccc1`: the cell number change was 17.6%. Also, under setting [1], the AC50 is 5.17 µM [rising, full curve, poor fit].
As for `CCCSCC(=O)Nc1ncc2c(n1)-c1ccccc1CC2`, the cell number change is -23.1%. Further, the AC50 under setting [1] is 6.51 µM [rising, partial curve, poor fit].
Consider `O=C(CSc1nc(C2CC2)nc2ccccc12)N1CCCCC1`, for which the cell number change was found to be 5.22%.
With `CC(C)CN(C(=O)c1ccc2c(c1)OCO2)C1CCS(=O)(=O)C1` (centres undefined), the cell number change was determined as 12.7%. For the same compound, the AC50 under setting [1] is 2.31 µM [falling, full curve].
`CCOC(=O)N1CCN(C(=O)C(=O)N/N=C/c2ccc(OC)cc2OC)CC1`: the cell number change was -17.5%. Besides, the AC50 under setting [1] is 0.00461 µM [falling, full curve, poor fit].
With `O=C(c1cc(-c2cccs2)nc2ccccc12)N1CCN(CCO)CC1`, the AC50 under setting [2] is 6.51 µM [falling, single point] and the AC50 under setting [1] was 6.51 µM [falling, single point].
Turning to `S=C(NCC(c1ccco1)N1CCCC1)Nc1ccccc1` (centres undefined), the cell number change is 21%. Further, the AC50 under setting [1] is 4.11 µM [rising, single point].
In the case of `COc1ccc(-c2cc(C(=O)N3CCN(S(=O)(=O)c4ccccc4)CC3)[nH]n2)cc1`, the cell number change came to 4.9%. In addition, the AC50 under setting [1] was 6.51 µM [rising, single point].
`CCNC(=S)N(CCc1c(C)[nH]c2ccccc12)Cc1cc(OC)c(OC)c(OC)c1`: the cell number change was -69.6%. The AC50 under setting [2] is 18.4 µM [falling, single point]. Besides, under setting [1], the AC50 was 29.1 µM [falling, single point].
With `COc1ccc2c(c1OC)C(=O)OC2CC(=O)c1ccc(O)c(O)c1` (centres undefined), the cell number change is 14.5%. The AC50 under setting [1] is 6.51 µM [falling, single point].
In the case of `Cn1ncc2nc[nH]c(=O)c21`, the cell number change was -42.9%. For the same compound, under setting [2], the AC50 was 1.3 µM [falling, full curve]. Besides, the AC50 under setting [1] is 29.1 µM [falling, single point].
On to `Clc1ccc(Nc2nc(N3CCOCC3)nc(N3CCOCC3)n2)cc1Cl`, for which the cell number change was 42.5%. Under setting [2], the half-maximal activity concentration (AC50) is 6.51 µM [rising, partial curve]. Further, the AC50 under setting [1] was 1.46 µM [rising, partial curve].
As to `O=C(O)C=C(Br)Br`, the cell number change was -6.68%. Moreover, the AC50 under setting [1] is 0.092 µM [falling, full curve, poor fit].
Regarding `Cc1cccc(-n2ncc3c(=O)[nH]c(SCC(=O)N4CC(=O)Nc5ccccc54)nc32)c1`, the cell number change is -3.26%. In addition, the AC50 under setting [1] was 0.116 µM [falling, full curve, poor fit].
On to `O=C(CSc1ncn[nH]1)Nc1ccccc1Sc1ccccc1`, for which the cell number change is -8.5%. Further, the AC50 under setting [1] is 6.51 µM [falling, single point].
Regarding `COc1cccc(CNS(=O)(=O)/C=C/c2ccc(OC)c(OC)c2)c1`, the cell number change was -3.74%.
For the compound `COC(=O)c1cccc(N(C(=O)CNC(=O)c2cccs2)C(C(=O)NCC2CCCO2)c2ccc(OC)c(OC)c2)c1` (centres undefined), the cell number change stood at 16.1%. In addition, the AC50 under setting [1] was 1.03 µM [rising, single point].
Turning to `C=CCNC(=O)C1CCN(c2c([N+](=O)[O-])cc(C(F)(F)F)cc2[N+](=O)[O-])CC1`, the AC50 under setting [2] is 2.59 µM [rising, partial curve].
On to `Cc1nn(Cc2ccc(F)cc2)c(C)c1NC(=O)c1cc(-c2ccc3c(c2)OCO3)on1`, for which the cell number change turned out to be 3.69%. The AC50 under setting [1] was 0.82 µM [rising, partial curve].
Consider `CCCc1nc2c(c(=O)c3ccccc3n2C)c(=O)n1-c1ccc(F)cc1`, for which the AC50 under setting [1] is 29.1 µM [rising, single point].
Take `Cc1nc(CSc2nsc(/C=C/N(C)C)c2C#N)cs1`: the cell number change was 74.8%. Under setting [2], the AC50 was 13 µM [rising, partial curve].
`COc1ccc(N2C(=O)c3ccccc3NC23CCC(C)CC3)cc1` (centres undefined): the cell number change was found to be 14.8%. For the same compound, the AC50 under setting [1] was 0.92 µM [rising, partial curve].
As for `CCOC(=O)N1CCC(NC(=O)CN2C(=O)C(CC)Oc3ccc(C)cc32)CC1` (centres undefined), the cell number change is -53.9%. In addition, under setting [2], the AC50 was 20.6 µM [falling, partial curve]. Moreover, under setting [1], the AC50 was 6.51 µM [falling, single point].
With `CC(C)Sc1nnc([C@@H]2CCCN2C(=O)OC(C)(C)C)o1`, the AC50 under setting [1] is 29.1 µM [falling, partial curve].
Turning to `CC(C)(C)c1ccc(C(=O)Nc2ccc(C(=O)N3CCCC3)cc2)cc1`, the cell number change is -19.2%. The AC50 under setting [1] is 29.1 µM [falling, partial curve, poor fit].
As for `O=C1CN(C(=O)COc2ccccc2)c2ccccc2N1`, the cell number change was 8.01%.
Turning to `COc1ccc(C2c3[nH]c4ccccc4c3C[C@H]3C(=O)N(c4ccccc4C(=O)NCCN4CCOCC4)C(=O)N23)cc1` (some centres undefined), the cell number change amounted to 2.24%. For the same compound, under setting [1], the AC50 is 1.84 µM [rising, partial curve].
Consider `COc1cccc(N(CC(=O)NCc2ccco2)C(=O)CCC(=O)Nc2nccs2)c1`, for which the cell number change came out at 14.8%. For the same compound, the AC50 under setting [1] was 0.82 µM [rising, partial curve].
`CCc1ccc2nc(NC(=O)C3CCN(c4ncnc5sc(C)c(C)c45)CC3)sc2c1`: the cell number change is -10.7%. The AC50 under setting [1] was 0.00461 µM [falling, full curve, poor fit].
For the compound `CC(C)N1C(=O)C(Cc2nc3ccccc3c(=O)n2-c2ccccc2)c2ccccc21` (centres undefined), the cell number change stood at 1.84%. The AC50 under setting [2] is 7.31 µM [rising, single point]. Also, the AC50 under setting [1] is 6.51 µM [rising, single point].
Regarding `COc1ccc(NC(=O)C2COc3ccccc3O2)cc1S(=O)(=O)N1CCOCC1` (centres undefined), the cell number change came out at 23.1%. Under setting [2], the AC50 was 0.326 µM [falling, single point]. Besides, under setting [1], the AC50 was 29.1 µM [rising, single point].
With `CC(C)N(CCC(=O)c1ccc2ccccc2c1)Cc1ccccc1`, the cell number change is -67.3%. For the same compound, under setting [2], the AC50 is 13 µM [falling, partial curve]. The AC50 under setting [1] was 23.1 µM [falling, single point].
With `CCCC1(c2ccccc2)NC(=O)N(CCN2C(=O)c3ccccc3C2=O)C1=O` (centres undefined), the cell number change is -9.04%.
As to `COc1cc(/C=C(/NC(=O)c2ccc(Cl)cc2Cl)C(=O)O)cc(OC)c1OC`, the cell number change worked out at 4.28%. The AC50 under setting [1] was 0.731 µM [falling, single point].
Regarding `COc1ccc(Cn2c(=O)oc3ccc(C)cc32)cc1OC`, the AC50 under setting [1] was 0.58 µM [rising, single point].
As for `CSc1ccccc1C(=O)N1CCC2(CC1)CC(=O)c1ccccc1O2`, the cell number change turned out to be 18.4%. Moreover, the AC50 under setting [1] is 0.92 µM [falling, single point].
As to `CCNC(=S)N1CCc2cc(OC)c(OC)cc2C1COc1ccccc1OC` (centres undefined), under setting [1], the AC50 was 14.6 µM [falling, partial curve].
Turning to `Cn1nc(C(=O)Nc2ccc(Cl)cc2)cc1C(=O)Nc1ccc(Cl)cc1`, the cell number change stood at 14.9%. In addition, the AC50 under setting [1] is 29.1 µM [rising, single point].

The values above are taken from PubChem BioAssay AID2685 (National Center for Advancing Translational Sciences (NCATS), 2010).
